# Results published in patent US20110046090A1, “MODULATION OF NEUROGENESIS WITH GABA AGENTS AND GABA ANALOGS” (BrainCells Inc., priority 2005, published 2011).
# Tested on: human neural stem cells (hNSCs)
# Assay: neuronal differentiation of cultured human neural stem cells (TUJ-1 staining), agents alone and in combination;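 further: cells kept in mitogen-free test media, with growth-factor-free basal medium as the negative control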
# Conditions: Neural stem cell, read-out: EC50 for neuronal differentiation, agent alone, compound run individually, % of neuronal positive control, basal media subtracted
smiles,measurement,value
"CN1CCN(C2=Nc3cc(Cl)ccc3Nc3ccccc32)CC1 [clozapine, clozapin]",EC50,> 100 µM
